Measurements reported in PubChem BioAssay AID1224830 (NIAID, 2016).
Test: 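Host factors that control LPS-induced TNF expression in human macrophages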 (primary screen). Cell system: human THP-1 monocytic leukaemia cells, TNF dual-luciferase reporter clone, PMA-differentiated to macrophage-like cells. Reagents: siRNA pool against human genes, 50 nM. Timing: LPS for 4 h, given about 3 days after siRNA transfection. Challenge: bacterial LPS (TLR4 ligand), 10 ng/ml. Measured: 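Ratio of firefly to renilla light, scaled to the plate median and expressed as a robust z-score per replicate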. Reading the numbers: TNF reporter robust z-score: higher = stronger TNF reporter response to LPS. Call rule: 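Each well counts as active if its z-score is over 2.8 or under -1.5; controls are left without a call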.
This is an unselected part of about 18,000 deposited reagents. About 2,900 of all reagents (16%) count as active. 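Calls are made per well; low scores hint the gene aids the LPS response, high scores that it dampens it.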 Repeated entries: four replicate wells of each siRNA pool.

| Target gene | TNF reporter robust z-score | call |
| --- | --- | --- |
| CWC15 | -0.52 | inactive |
| CWC15 | -0.64 | inactive |
| CWC15 | 1.21 | inactive |
| CWC15 | -0.14 | inactive |
| H2BW1 | -0.97 | inactive |
| H2BW1 | -1.1 | inactive |
| H2BW1 | 1.57 | inactive |
| H2BW1 | -0.99 | inactive |
| SOWAHC | 0.22 | inactive |
| SOWAHC | 0.41 | inactive |
| SOWAHC | -0.23 | inactive |
| SOWAHC | 0.02 | inactive |
| CD4 | -0.48 | inactive |
| CD4 | 0.16 | inactive |
| CD4 | -0.15 | inactive |
| CD4 | 0.07 | inactive |
| COX4I1 | -0.99 | inactive |
| COX4I1 | -0.55 | inactive |
| COX4I1 | -1.03 | inactive |
| COX4I1 | -0.33 | inactive |
| CFAP77 | -0.08 | inactive |
| CFAP77 | 0 | inactive |
| CFAP77 | -0.69 | inactive |
| CFAP77 | -0.23 | inactive |
| PPP1R16A | -0.11 | inactive |
| PPP1R16A | -0.05 | inactive |
| PPP1R16A | -0.99 | inactive |
| PPP1R16A | -0.92 | inactive |
| MGMT | -0.96 | inactive |
| MGMT | 0.45 | inactive |
| MGMT | -1.06 | inactive |
| MGMT | -0.01 | inactive |
| ANKRD22 | 0.56 | inactive |
| ANKRD22 | 1.27 | inactive |
| ANKRD22 | -0.1 | inactive |
| ANKRD22 | 1.84 | inactive |
| CR1 | -0.95 | inactive |
| CR1 | 0.3 | inactive |
| CR1 | 0.82 | inactive |
| CR1 | 1.24 | inactive |
| BOLA2 | 0.26 | inactive |
| BOLA2 | 2.18 | inactive |
| BOLA2 | 0.38 | inactive |
| BOLA2 | 0.23 | inactive |
| PSMD11 | -1.97 | active |
| PSMD11 | -2.11 | active |
| PSMD11 | -1.95 | active |
| PSMD11 | -2.04 | active |
| MYLK | -0.33 | inactive |
| MYLK | -0.35 | inactive |
| MYLK | -0.34 | inactive |
| MYLK | -1.08 | inactive |
| PDGFC | 0.63 | inactive |
| PDGFC | 0.25 | inactive |
| PDGFC | -0.08 | inactive |
| PDGFC | 0.24 | inactive |
| UBA5 | -0.23 | inactive |
| UBA5 | -1.09 | inactive |
| UBA5 | -0.75 | inactive |
| UBA5 | -0.32 | inactive |
| JAK2 | 0.3 | inactive |
| JAK2 | 0.41 | inactive |
| JAK2 | 0 | inactive |
| JAK2 | 0.54 | inactive |
| ATP2C1 | -1.04 | inactive |
| ATP2C1 | -0.31 | inactive |
| ATP2C1 | -1.01 | inactive |
| ATP2C1 | -0.81 | inactive |
| SPTSSB | -1.36 | inactive |
| SPTSSB | -1.16 | inactive |
| SPTSSB | 0.53 | inactive |
| SPTSSB | -0.16 | inactive |
| THTPA | -0.91 | inactive |
| THTPA | 0.01 | inactive |
| THTPA | -0.72 | inactive |
| THTPA | -0.95 | inactive |
| MBTD1 | 0.68 | inactive |
| MBTD1 | 0.95 | inactive |
| MBTD1 | 0.86 | inactive |
| MBTD1 | 0.79 | inactive |
| CRLS1 | 0.17 | inactive |
| CRLS1 | 0.22 | inactive |
| CRLS1 | 0.57 | inactive |
| CRLS1 | 1.87 | inactive |
| TBC1D17 | 0.65 | inactive |
| TBC1D17 | 0.25 | inactive |
| TBC1D17 | 0.21 | inactive |
| TBC1D17 | 0.6 | inactive |
| IGFBP6 | 0.47 | inactive |
| IGFBP6 | 1.69 | inactive |
| IGFBP6 | 0.43 | inactive |
| IGFBP6 | 0.73 | inactive |

Active calls, of those listed so far:
| Target gene | TNF reporter robust z-score | call |
| --- | --- | --- |
| PSMD11 | -1.97 | active |
| PSMD11 | -2.11 | active |
| PSMD11 | -1.95 | active |
| PSMD11 | -2.04 | active |

Next records:
| Target gene | TNF reporter robust z-score | call |
| --- | --- | --- |
| SLC25A30 | -1.69 | active |
| SLC25A30 | -0.86 | inactive |
| SLC25A30 | -1.29 | inactive |
| SLC25A30 | -1.12 | inactive |
| CLSTN1 | 2.6 | inactive |
| CLSTN1 | 3.67 | active |
| CLSTN1 | -1.04 | inactive |
| CLSTN1 | 4.16 | active |
| DNAJC4 | 1.24 | inactive |
| DNAJC4 | 0.97 | inactive |
| DNAJC4 | 2.23 | inactive |
| DNAJC4 | 1.86 | inactive |
| MAP4K3 | 0.71 | inactive |
| MAP4K3 | -0.46 | inactive |
| MAP4K3 | 0.6 | inactive |
| MAP4K3 | 0.79 | inactive |
| NRXN1 | -0.35 | inactive |
| NRXN1 | 0.39 | inactive |
| NRXN1 | 1.09 | inactive |
| NRXN1 | 1.95 | inactive |
| MED13 | 2.2 | inactive |
| MED13 | 0.81 | inactive |
| MED13 | 0.7 | inactive |
| MED13 | 1.31 | inactive |
| OXA1L | – | inactive |
| OXA1L | 1.29 | inactive |
| OXA1L | 0.75 | inactive |
| OXA1L | 0.83 | inactive |
| B4GALT5 | -0.08 | inactive |
| B4GALT5 | -0.35 | inactive |
| B4GALT5 | -0.74 | inactive |
| B4GALT5 | 0.2 | inactive |
| KLRC3 | 1.01 | inactive |
| KLRC3 | 0.27 | inactive |
| KLRC3 | 1.38 | inactive |
| KLRC3 | 0.11 | inactive |
| RIT2 | 0.42 | inactive |
| RIT2 | 0.02 | inactive |
| RIT2 | 0.93 | inactive |
| RIT2 | 0.43 | inactive |
| OR4C6 | 3.43 | active |
| OR4C6 | -0.73 | inactive |
| OR4C6 | 0.78 | inactive |
| OR4C6 | 0.85 | inactive |
| C16orf78 | 0.22 | inactive |
| C16orf78 | -0.12 | inactive |
| C16orf78 | 1.02 | inactive |
| C16orf78 | 0.52 | inactive |
